In the supplement of paper PMC11438910:
This is one part of the list. The signal is at background level for most entries.

What was measured:
Experiment in all cases: fluorescence intensity of antibody binding to polysaccharide-coupled beads; higher = stronger binding
[1] = target: pneumococcal polysaccharide C-Poly-1
Procedure: (§1)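 Recombinant rhesus-murine chimeric IgG1 antibodies were tested against antigen-coupled MagPlex beads in a 96-plex Luminex direct immunoassay (dLIA). The beads carried pneumococcal capsular polysaccharides of 93 serotypes plus C-polysaccharides. Antibody was added at 0.1–12,500 ng/mL for 1 h, then PE anti-mouse IgG, and net MFI was read on a Bio-Plex 3D. Only the rhesus variable regions are printed; constant regions are murine IgG1/kappa/lambda, and the signal peptide is MGWSCIILFLVATATGVHS.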

[2] = target: pneumococcal polysaccharide C-Poly-2
Procedure: as §1

[3] = target: pneumococcal polysaccharide Pn1
Procedure: as §1

[4] = target: pneumococcal polysaccharide Pn10A
Procedure: as §1

[5] = antibody concentration 0.1 ng/mL
[6] = antibody concentration 0.534724 ng/mL
[7] = antibody concentration 2.8593 ng/mL
[8] = antibody concentration 15.2894 ng/mL
[9] = antibody concentration 81.7561 ng/mL
[10] = antibody concentration 437.17 ng/mL
[11] = antibody concentration 2337.65 ng/mL
[12] = antibody concentration 12500 ng/mL

B1: 4-127.3 (protein)
chain 1: QVQLQESGPGLVKPSETLSLTCAVSGYSISSGYGWSWIRQPPGKGLEWIGYIGGSSGSTNYNPSLKSRVTVSKDTSKNQFSLKLSSVTAADTAVYYCARADYCTSTTCYGPNRFDVWGPGVLVTVSS
chain 2: QAAPTQSPSVSGSAGQSVTISCTGSSSDIGYYNGVSWYQHHPGKAPKLMIYEVSKRPSGVSNRFSGSKSGNTASLTISGLQAADEADYFCSSYAGSGTYIFGAGTRLTVL
- fluorescence intensity [1, 5]: 27.2 MFI
- fluorescence intensity [1, 6]: 27.2 MFI
- fluorescence intensity [1, 7]: 26.2 MFI
- fluorescence intensity [1, 8]: 28.5 MFI
- fluorescence intensity [1, 9]: 26.2 MFI
- fluorescence intensity [1, 10]: 30.5 MFI
- fluorescence intensity [1, 11]: 37.2 MFI
- fluorescence intensity [1, 12]: 106 MFI
- fluorescence intensity [2, 5]: 21.5 MFI
- fluorescence intensity [2, 6]: 20.5 MFI
- fluorescence intensity [2, 7]: 22 MFI
- fluorescence intensity [2, 8]: 22 MFI
- fluorescence intensity [2, 9]: 21.5 MFI
- fluorescence intensity [2, 10]: 24.2 MFI
- fluorescence intensity [2, 11]: 31.8 MFI
- fluorescence intensity [2, 12]: 95.5 MFI
- fluorescence intensity [3, 5]: 14.5 MFI
- fluorescence intensity [3, 6]: 12.5 MFI
- fluorescence intensity [3, 7]: 14 MFI
- fluorescence intensity [3, 8]: 15 MFI
- fluorescence intensity [3, 9]: 14.5 MFI
- fluorescence intensity [3, 10]: 14.5 MFI
- fluorescence intensity [3, 11]: 17.5 MFI
- fluorescence intensity [3, 12]: 34.5 MFI
- fluorescence intensity [4, 5]: 28 MFI
- fluorescence intensity [4, 6]: 25.5 MFI
- fluorescence intensity [4, 7]: 25.5 MFI
- fluorescence intensity [4, 8]: 27.5 MFI
- fluorescence intensity [4, 9]: 27 MFI
- fluorescence intensity [4, 10]: 26.5 MFI
